In paper PMC10813977:
These are yes or no findings as the source states them, for the method shown. Binding seen in cells or lysates may run through a third protein. Some results given as binding are weak or reduced against the parent protein; the word gives no strength. Blank lines part the entries; values can stand above or below the molecule they belong to.

Sequences of proteins named here, by UniProt entry; tags and fusion partners are left off.
UniProt P42224: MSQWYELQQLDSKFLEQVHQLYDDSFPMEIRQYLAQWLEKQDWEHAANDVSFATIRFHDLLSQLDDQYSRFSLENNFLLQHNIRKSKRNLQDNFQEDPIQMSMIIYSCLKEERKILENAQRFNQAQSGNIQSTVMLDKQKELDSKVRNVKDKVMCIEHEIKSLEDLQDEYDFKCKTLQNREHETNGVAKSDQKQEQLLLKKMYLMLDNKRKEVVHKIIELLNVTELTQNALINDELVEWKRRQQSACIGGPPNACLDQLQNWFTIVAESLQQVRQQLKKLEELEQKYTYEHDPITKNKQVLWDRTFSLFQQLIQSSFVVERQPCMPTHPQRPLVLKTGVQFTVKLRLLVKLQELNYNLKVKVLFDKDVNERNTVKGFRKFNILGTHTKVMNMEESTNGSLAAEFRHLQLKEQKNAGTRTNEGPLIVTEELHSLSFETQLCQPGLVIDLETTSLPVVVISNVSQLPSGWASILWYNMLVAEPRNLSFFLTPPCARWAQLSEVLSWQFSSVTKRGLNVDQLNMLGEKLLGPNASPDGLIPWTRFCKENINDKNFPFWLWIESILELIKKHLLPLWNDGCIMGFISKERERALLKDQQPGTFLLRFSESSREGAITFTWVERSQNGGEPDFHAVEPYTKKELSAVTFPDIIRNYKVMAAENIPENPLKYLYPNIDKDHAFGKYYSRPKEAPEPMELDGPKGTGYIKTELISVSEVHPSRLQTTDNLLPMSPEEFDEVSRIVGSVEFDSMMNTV

Columns and labels:
[1] = target: T1, tryptophanyl-tRNA synthetase (WARS), endogenous (human (endogenous in A375)) (UniProt P23381); test: co-IP; A375 cells treated with IFN-γ for 48 h, cross-linked with 0.1% formaldehyde; lysis in 50 mM Tris-HCl pH 8, 150 mM NaCl, 0.5% Nonidet P-40; beads with cross-linked anti-WARS, anti-STAT1 or control antibody overnight at 4 °C, six washes; Western blots of WARS and STAT1
T1 sequence: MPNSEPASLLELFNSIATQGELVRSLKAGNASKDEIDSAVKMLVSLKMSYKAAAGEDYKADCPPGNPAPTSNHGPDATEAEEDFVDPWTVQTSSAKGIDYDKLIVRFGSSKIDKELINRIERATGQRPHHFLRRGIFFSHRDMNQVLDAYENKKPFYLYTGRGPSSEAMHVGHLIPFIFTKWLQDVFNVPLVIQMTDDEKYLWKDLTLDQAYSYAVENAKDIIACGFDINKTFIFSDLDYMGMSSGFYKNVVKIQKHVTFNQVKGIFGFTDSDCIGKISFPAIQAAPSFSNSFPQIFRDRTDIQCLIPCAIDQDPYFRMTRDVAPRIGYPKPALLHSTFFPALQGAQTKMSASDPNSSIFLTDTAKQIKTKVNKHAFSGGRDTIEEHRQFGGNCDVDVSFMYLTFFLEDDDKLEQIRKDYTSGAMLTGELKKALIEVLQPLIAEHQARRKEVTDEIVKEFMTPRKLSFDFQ

[2] = target: Signal transducer and activator of transcription 1 (STAT1), endogenous (human (endogenous in A375)) (UniProt P42224); test: as above

binding [1]: binds
Molecule: Signal transducer and activator of transcription 1 (STAT1), endogenous (from UniProt P42224 1-750)

binding [2]: binds
B1: tryptophanyl-tRNA synthetase (WARS), endogenous (enzyme, UniProt P23381 1-471)
chain: T1 sequence
